The values that follow come from the supplement of paper PMC10735217.

In the test the test system is HEK293A TEAD-LUC reporter. Kind of test: TEAD-luciferase reporter activity (YAP activation), robust Z score vs plate; higher = stronger YAP/TEAD activation. The following applies: 24 h. (A reporter such as luciferase makes a cellular process visible.)

The structures appear in SMILES notation. “And” between values parts separate entries of the source, which are not always exact repeats. Identical values can stand only once. Counter-ions that a name gives are not always drawn. Some of the results follow. This data set is noisy: repeats of one test often differ as much as different tests do.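 In a drug-repurposing library screen, luminescence reads luciferase driven by eight TEAD-binding elements, stably integrated into human kidney-derived cells. Compounds scoring over five robust Z scores above the plate mean are called hits.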

With `Cc1cccc(C)c1NC(=O)CC12CCCN1CCC2` [pilsicainide hydrochloride], the TEAD-luciferase reporter activity runs as follows: (compound concentration: 200 nM) inactive: 0.295; (compound concentration: 2 uM) inactive: -0.717; (compound concentration: 10 uM) inactive: 0.933.

As to `Cc1nnc(SCC2=C(C(=O)O)N3C(=O)C(NC(=O)Cn4cnnn4)C3SC2)s1` (stereo unspecified) [cefazolin dibenzylamine], the TEAD-luciferase reporter activity (compound concentration: 200 nM) was inactive: 0.184, the TEAD-luciferase reporter activity (compound concentration: 2 uM) was inactive: -0.732 and the TEAD-luciferase reporter activity (compound concentration: 10 uM) is inactive: 0.44.

As to `OC(CCN1CCCCC1)(c1ccccc1)c1ccccc1`, the TEAD-luciferase reporter activity was inactive: -1.79 (compound concentration: 200 nM), inactive: -0.722 (compound concentration: 2 uM) and inactive: -0.994 (compound concentration: 10 uM).

As for `CN1CCC(c2c[nH]c3ccc(NC(=O)c4ccc(F)cc4)cc23)CC1`, the TEAD-luciferase reporter activity by setting is: (compound concentration: 200 nM) inactive: 0.495; (compound concentration: 2 uM) inactive: 0.254; (compound concentration: 10 uM) inactive: 1.58.

As for `COC[C@H]1C[C@](C#N)(Cn2cccn2)N(C(=O)c2ccc(C(C)(C)C)c(OC)c2)[C@H]1c1nccs1`, the TEAD-luciferase reporter activity is inactive: 0.387 (compound concentration: 200 nM), inactive: 1.26 (compound concentration: 2 uM) and inactive: -1.28 (compound concentration: 10 uM).

Consider `Cc1[nH]c(/C=C2\C(=O)Nc3ccc(F)cc32)c(C)c1C(=O)N[C@H]1CCN(C(=O)N(C)C)C1`, for which the TEAD-luciferase reporter activity was inactive: 1.03 (compound concentration: 200 nM), inactive: 1.88 (compound concentration: 2 uM) and inactive: 1.44 (compound concentration: 10 uM).

As to `CC[C@H]1OC(=O)[C@H](C)[C@@H](O[C@H]2C[C@@](C)(OC)[C@@H](O)[C@H](C)O2)[C@H](C)[C@@H](O[C@@H]2O[C@H](C)C[C@H](N(C)C)[C@H]2O)[C@@]2(C)CC(C)=C(O2)[C@H](C)[C@@H](O)[C@]1(C)O` [Erythromycin A enol ether], the TEAD-luciferase reporter activity (compound concentration: 200 nM) was inactive: 0.865 and the TEAD-luciferase reporter activity (compound concentration: 10 uM) was inactive: -0.391.

On to `CC[C@H]1OC(=O)[C@H](C)[C@@H](O[C@H]2C[C@@](C)(OC)[C@@H](O)[C@H](C)O2)[C@H](C)[C@@H](O[C@@H]2O[C@H](C)C[C@H](N(C)C)[C@H]2O)[C@@]2(C)CC(C)=C(O2)[C@H](C)[C@@H](O)[C@]1(C)O`, for which the TEAD-luciferase reporter activity (compound concentration: 2 uM) was inactive: 0.202.

Regarding `CCC(=O)c1ccc2c(c1)N(CCCN(C)C)c1ccccc1S2` [Propionylpromazine], the TEAD-luciferase reporter activity runs as follows: (compound concentration: 200 nM) inactive: -1.33; (compound concentration: 10 uM) inactive: 2.09.

Regarding `CCC(=O)c1ccc2c(c1)N(CCCN(C)C)c1ccccc1S2`, the TEAD-luciferase reporter activity (compound concentration: 2 uM) was inactive: 0.396.

Take `CCCCCCCCCCCCCCCCCC(O)c1ccc(C(=O)O)c(Cl)c1` (stereo unspecified) [lodelaben]: the TEAD-luciferase reporter activity was inactive: -1.43 (compound concentration: 200 nM), inactive: 2.48 (compound concentration: 2 uM) and inactive: 2.39 (compound concentration: 10 uM).

As for `CN(C)[C@@H]1C(O)=C(C(N)=O)C(=O)C2(O)C(O)=C3C(=O)c4c(ccc(N)c4O)C[C@H]3C[C@@H]12` (stereo partly specified), the TEAD-luciferase reporter activity by setting is: (compound concentration: 200 nM) inactive: -1.43; (compound concentration: 10 uM) inactive: 2.49.

On to `Nc1c2c(nc3c1CCCC3)CCCC2` [Octahydrogenacridine succinate], for which the TEAD-luciferase reporter activity is inactive: -0.523 (compound concentration: 200 nM), inactive: -0.786 (compound concentration: 2 uM) and inactive: 2.83 (compound concentration: 10 uM).

Consider `C=COCC(F)(F)F`, for which the TEAD-luciferase reporter activity (compound concentration: 200 nM) is inactive: 0.08, the TEAD-luciferase reporter activity (compound concentration: 2 uM) is inactive: 2.51 and the TEAD-luciferase reporter activity (compound concentration: 10 uM) is inactive: 0.429.

For `CCCCCCCN(CC)CCCC(O)c1ccc(NS(C)(=O)=O)cc1` (stereo unspecified) [Ibutilide Fumarate_:_2016-03-02: ibutilide fumarate], the TEAD-luciferase reporter activity (compound concentration: 2 uM) was inactive: -0.624.

Turning to `CCCCCCCN(CC)CCCC(O)c1ccc(NS(C)(=O)=O)cc1` (stereo unspecified) [Ibutilide Fumarate], the TEAD-luciferase reporter activity is, setting by setting: (compound concentration: 200 nM) inactive: -0.815; (compound concentration: 10 uM) inactive: -0.675.

With `O=C1Nc2ccccc2/C1=C1/Nc2ccccc2C1=O` [indirubin], where the note is “compound concentration: 2 uM”, the TEAD-luciferase reporter activity is inactive: 1.94.

As for `O=C1Nc2ccccc2/C1=C1/Nc2ccccc2C1=O`, the TEAD-luciferase reporter activity was inactive: -0.641 (compound concentration: 200 nM) and inactive: 2.68 (compound concentration: 10 uM).

Regarding `O=C(/C=C/c1ccc2c(c1)OCO2)OCc1cc(=O)c(O)co1`, the TEAD-luciferase reporter activity reads like this: (compound concentration: 200 nM) inactive: -0.0787; (compound concentration: 2 uM) inactive: -0.787; (compound concentration: 10 uM) inactive: 1.62.

Regarding `CC(C)NCC(O)c1ccc(O)c2ncccc12` (stereo unspecified), the TEAD-luciferase reporter activity was inactive: -0.307 (compound concentration: 200 nM), inactive: -0.81 (compound concentration: 2 uM) and inactive: -0.427 (compound concentration: 10 uM).

On to `CCOC(=O)c1ccc(NC(=O)CC)cc1NC(=O)c1ccc(C(=O)O)cc1`, for which the TEAD-luciferase reporter activity (compound concentration: 200 nM) was inactive: 0.182; the TEAD-luciferase reporter activity (compound concentration: 2 uM) was inactive: 1.33 and inactive: -0.723; the TEAD-luciferase reporter activity (compound concentration: 10 uM) was inactive: -0.0429.

`CC(C)(C)C(=O)OCOP(=O)(OCOC(=O)C(C)(C)C)C(CCCc1cccc(Oc2ccccc2)c1)S(=O)(=O)O` (stereo unspecified): the TEAD-luciferase reporter activity (compound concentration: 200 nM) is inactive: -2.26, the TEAD-luciferase reporter activity (compound concentration: 2 uM) was inactive: 3.35 and the TEAD-luciferase reporter activity (compound concentration: 10 uM) is inactive: 2.89.

`CCNCc1c(CSC)cnc(C)c1O`: the TEAD-luciferase reporter activity was inactive: 2.65 (compound concentration: 200 nM), inactive: 1.01 (compound concentration: 2 uM) and inactive: -0.636 (compound concentration: 10 uM).

`CC(COc1ccccc1Cc1ccccc1)N1CCCCC1` (stereo unspecified): the TEAD-luciferase reporter activity (compound concentration: 200 nM) is inactive: 0.873 and the TEAD-luciferase reporter activity (compound concentration: 10 uM) is inactive: 2.46.

For the compound `CC(COc1ccccc1Cc1ccccc1)N1CCCCC1` (stereo unspecified) [benproperine], the TEAD-luciferase reporter activity (compound concentration: 2 uM) was inactive: 0.395.

In the case of `CN(O)C(=O)CCc1ccc2c(c1)Cc1ccccc1CO2`, the TEAD-luciferase reporter activity by setting is: (compound concentration: 200 nM) inactive: -0.0363; (compound concentration: 2 uM) inactive: 0.995; (compound concentration: 10 uM) inactive: -0.743.

As to `C=CCc1ccc(O)c(OC)c1` [Eugenol], the TEAD-luciferase reporter activity runs as follows: (compound concentration: 200 nM) inactive: 0.247; (compound concentration: 2 uM) inactive: 0.765; (compound concentration: 10 uM) inactive: -0.00285.

Take `Cc1ccccc1C(=O)N1CC/C(=N/OS(=O)(=O)[O-])c2ccc(Cl)cc21` [Alilusem potassium]: the TEAD-luciferase reporter activity runs as follows: (compound concentration: 200 nM) inactive: 0.00971; (compound concentration: 2 uM) inactive: -1.29; (compound concentration: 10 uM) inactive: 1.22.

Consider `CC(C)Oc1ccc(S(=O)(=O)N2CCN(c3ccc(-c4ncco4)c(OCC(=O)O)c3)CC2)cc1` [Asapiprant], for which the TEAD-luciferase reporter activity by setting is: (compound concentration: 200 nM) inactive: -1.19; (compound concentration: 2 uM) inactive: -0.666; (compound concentration: 10 uM) inactive: -1.4.
